Measurements published in article PMC7819943, “Rice protein-binding microarrays: a tool to detect cis-acting elements near promoter regions in rice”.
The list shows a part of the results.

By UniProt entry, the sequences of proteins in these tests, tags left out.
UniProt Q0JBA9, entry or part of it: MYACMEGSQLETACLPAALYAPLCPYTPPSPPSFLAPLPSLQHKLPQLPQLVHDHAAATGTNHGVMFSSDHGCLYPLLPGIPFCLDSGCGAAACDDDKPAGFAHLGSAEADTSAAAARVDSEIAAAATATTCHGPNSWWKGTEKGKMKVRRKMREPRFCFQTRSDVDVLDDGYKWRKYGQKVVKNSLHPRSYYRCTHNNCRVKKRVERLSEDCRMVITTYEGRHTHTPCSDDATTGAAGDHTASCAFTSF

Target: OsWRKY34 (Oryza sativa, UniProt Q0JBA9 1-250)
Test: protein-binding microarray (RPBM); PBS, 2% BSA, 51.3 ng/ul salmon testes DNA, 50 uM zinc acetate, 200 nM TF, 25 C, 1 h; high values mean tight binding
Conditions: protein: recombinant; tags: N-terminal polyhistidine and DsRed monomer fusion (pET32a); label: CyDye5-dUTP incorporated in the synthesized complementary strand; 3' TTTTT single-stranded linker to array surface; dsDNA, one strand shown
How it was run: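 Per-feature fluorescence intensity (arbitrary units), read on an Axon 4000B scanner, is the binding signal. Transcription factors carrying an N-terminal polyhistidine tag and DsRed fusion were expressed in E. coli BL21-CodonPlus and purified on Ni–NTA. A custom Agilent array, made double-stranded by primer extension with Cy5-dUTP and blocked with 2% BSA, was incubated with 200 nM protein in PBS, 2% BSA, salmon testes DNA and 50 µM zinc acetate at 25 °C for 1 h and then washed.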

Sequence	binding signal
GCACCACCATCCTTCCTAGGAAAACCCCACCCACCCTCACCGGAGTCACCTAGTGCAG	8440 fluorescence intensity (a.u.)
ATATGGACTGTTTGTTTTGTTCCCCTATCTAGAATTATTCCGGAGTCACCTAGTGCAG	8420 fluorescence intensity (a.u.)
GATTGTTTGCTAGTATCTCTTTCCATGGAGACATAAGAATCGGAGTCACCTAGTGCAG	8600 fluorescence intensity (a.u.)
CGCCATCCCAATCCGATCTCCCGCGAGCTCCAGATCCACCCGGAGTCACCTAGTGCAG	9180 fluorescence intensity (a.u.)
CGACCTCACGCTCCACCTCTACTTCCGGCGCGCCGCGCGGCGGAGTCACCTAGTGCAG	8600 fluorescence intensity (a.u.)
TCTATACCTAGCTATCTTTTACAATTGCTAATTCCACAAGCGGAGTCACCTAGTGCAG	8870 fluorescence intensity (a.u.)
ATCGAGCTCTCTTACCAACGCCGATCTAAAGCTTCACCTCCGGAGTCACCTAGTGCAG	8800 fluorescence intensity (a.u.)
CTCGTCATCACATGGCCGCCGCCGCAACCACCACCGCCGCCGGAGTCACCTAGTGCAG	9370 fluorescence intensity (a.u.)
CCACCACCGCGCCACCATGGGCGCCGCCACCGCCCAGCCGCGGAGTCACCTAGTGCAG	9610 fluorescence intensity (a.u.)
CGCCAACGCCACGCCGAGCCTCGCGCCGCTCTTATATTACCGGAGTCACCTAGTGCAG	10400 fluorescence intensity (a.u.)
TTCGCTGCAGTGTCTTTCCTGCCTTGCAATTGCAAATCCTCGGAGTCACCTAGTGCAG	8020 fluorescence intensity (a.u.)
CTCTTCTCTCTCCCCTTTTTTGGTTCAAGCTCACCACGCCCGGAGTCACCTAGTGCAG	8140 fluorescence intensity (a.u.)
TGACACCACTGCACAAGTTTAGGGACCGCCTATGTACTTCCGGAGTCACCTAGTGCAG	8270 fluorescence intensity (a.u.)
CGCAACACACGCACTCCAGGTAAACCCTACGACTCCAGCTCGGAGTCACCTAGTGCAG	8840 fluorescence intensity (a.u.)
ACATTATGGCATTCATGTTCACTATTCACATTTTCACATCCGGAGTCACCTAGTGCAG	9590 fluorescence intensity (a.u.)
CAATCAACTTCTTCTTTCTTCGTGTTCTTCAGCTCTGCTACGGAGTCACCTAGTGCAG	10200 fluorescence intensity (a.u.)
CTGCCCACCGCCGCTGCGCCCGCCGCCCACCGCCCGCCGACGGAGTCACCTAGTGCAG	10500 fluorescence intensity (a.u.)
GCTACTATTTTCTTGTTTTTTATGTGTACGTTTCCCGAATCGGAGTCACCTAGTGCAG	11100 fluorescence intensity (a.u.)
CATGTCATCCTTCCACCATCGATCTCTCCATCTCTTTCATCGGAGTCACCTAGTGCAG	8430 fluorescence intensity (a.u.)
TTTTTTTTGCTGGAATTCTTGTTGTGGGGTAAGGCGCAAACGGAGTCACCTAGTGCAG	11800 fluorescence intensity (a.u.)
AGCGCAACTCGTCGCCGCCGTGCCGTTGCGTTTCTCGTTACGGAGTCACCTAGTGCAG	8510 fluorescence intensity (a.u.)

Retrieved one by one from the entries so far:
Sequence	binding signal
GATTGTTTGCTAGTATCTCTTTCCATGGAGACATAAGAATCGGAGTCACCTAGTGCAG	8600 fluorescence intensity (a.u.)
GCTACTATTTTCTTGTTTTTTATGTGTACGTTTCCCGAATCGGAGTCACCTAGTGCAG	11100 fluorescence intensity (a.u.)

Reformatted comma-delimited: entries from further up.
Sequence,binding signal
GCACCACCATCCTTCCTAGGAAAACCCCACCCACCCTCACCGGAGTCACCTAGTGCAG,8440 fluorescence intensity (a.u.)
ATATGGACTGTTTGTTTTGTTCCCCTATCTAGAATTATTCCGGAGTCACCTAGTGCAG,8420 fluorescence intensity (a.u.)
GATTGTTTGCTAGTATCTCTTTCCATGGAGACATAAGAATCGGAGTCACCTAGTGCAG,8600 fluorescence intensity (a.u.)

Next results follow:

Sequence	binding signal
TTTCGATTGCAATTTCGTTAGTTTCTGTGCCTTTTTGCTCCGGAGTCACCTAGTGCAG	8180 fluorescence intensity (a.u.)
TGCATGAATTTTGTGTTGTATATCAGGTAGTCTATTTTTTCGGAGTCACCTAGTGCAG	10800 fluorescence intensity (a.u.)
GGTTGGTTCTTTTGCTACTGCTTGCCTTTTCTGACTCGCTCGGAGTCACCTAGTGCAG	12000 fluorescence intensity (a.u.)
GCCGTCTCGGGTTGGGCCAGCCGCCGTCGCGCCTCTGCTCCGGAGTCACCTAGTGCAG	8600 fluorescence intensity (a.u.)
CTGCATCACCTTCACCTGATCACATCCATATTTGCAATTACGGAGTCACCTAGTGCAG	8970 fluorescence intensity (a.u.)
TCTTGCAATCTTGATCGATAGTCTCCTCCATCTTCTTCGTCGGAGTCACCTAGTGCAG	8680 fluorescence intensity (a.u.)
TTCTCGTCCGAAGTCCTCTGTGCGTCCCTCTTCCTTCATTCGGAGTCACCTAGTGCAG	10100 fluorescence intensity (a.u.)
CTTGATTTCTGCGTTCATATTCTTTTCAATGTTGCAGGGGCGGAGTCACCTAGTGCAG	9460 fluorescence intensity (a.u.)
TGCCCTCAGTTTTTATTTATGGGCCGGTCCATATCCGACACGGAGTCACCTAGTGCAG	8060 fluorescence intensity (a.u.)
CATAATTTACCTTTATATCTTTTTTCTTCTGGGATCTTCTCGGAGTCACCTAGTGCAG	9340 fluorescence intensity (a.u.)
GTCGCCACCCACCATACTAGTCCATCTCGATCCGTCCGTTCGGAGTCACCTAGTGCAG	11300 fluorescence intensity (a.u.)
TACCAGTCCCTTTCTTCTGCCCAATTCCACAATGTTAAACCGGAGTCACCTAGTGCAG	8230 fluorescence intensity (a.u.)
AGATGTTGACTCGCCGAAAACCTGACAAGCTGAAATTCTTCGGAGTCACCTAGTGCAG	8620 fluorescence intensity (a.u.)
GTATTCCAAAACGCCACACCAACCGCACTGTGAATTTCTGCGGAGTCACCTAGTGCAG	9640 fluorescence intensity (a.u.)
CCGATTCTCTTCTCTATCATATTTTATCTCATTAAAATATCGGAGTCACCTAGTGCAG	8990 fluorescence intensity (a.u.)
CTTAGGCTGTGTTTAGTTTCACGCCAAAATTAGAAATTTGCGGAGTCACCTAGTGCAG	8420 fluorescence intensity (a.u.)
GTTGTGGGTGTGAAAATTCCATGAATTCATTGTCTTTGCACGGAGTCACCTAGTGCAG	8300 fluorescence intensity (a.u.)
TGTACATTTCTACTGACCTGCCACGTGGCACTTTACATTCCGGAGTCACCTAGTGCAG	10600 fluorescence intensity (a.u.)
TTCTTCCCCGTCTCCGTCACCCGAACCCTCTCAACCCATGCGGAGTCACCTAGTGCAG	9840 fluorescence intensity (a.u.)
TCCCTAAATATTTGACGCCATTGACTTTTTTAAACATGTTCGGAGTCACCTAGTGCAG	11200 fluorescence intensity (a.u.)
TGCGACGTTGTCTTGATCTTTTGTTGTAATGAAACCGATTCGGAGTCACCTAGTGCAG	9060 fluorescence intensity (a.u.)

Sequence	binding signal
CACGCAGCTCTCCGGTGGCCGTCGAACCATCCGCGCGGGCCGGAGTCACCTAGTGCAG	8120 fluorescence intensity (a.u.)
CAAACTCCACTTGATTACTTCATCGTGCCGACGTCGACACCGGAGTCACCTAGTGCAG	8600 fluorescence intensity (a.u.)
ATGAGACGGTACCTGATACTTGATGCATGCTGTGGTACCACGGAGTCACCTAGTGCAG	8820 fluorescence intensity (a.u.)
CATCCATCCCTGCCTTTCTTCAGATCATCTCATACTAGGCCGGAGTCACCTAGTGCAG	10500 fluorescence intensity (a.u.)
TTTTACCTGATGTTAAATTTCCCCTAAAACTTGCACGATACGGAGTCACCTAGTGCAG	8140 fluorescence intensity (a.u.)
TCCTCTCCATCTCTCTAGTTTCTCTCTCTAATTAAGCATTCGGAGTCACCTAGTGCAG	10300 fluorescence intensity (a.u.)
GCTACAGCACTCTCCGCCATTCTTCATTTCCAGCCGTTGGCGGAGTCACCTAGTGCAG	8740 fluorescence intensity (a.u.)
TACACATCAATGTCGTTACCAGGTTGCTTTGGGCCTTGAACGGAGTCACCTAGTGCAG	8200 fluorescence intensity (a.u.)
GCCTATCCTGCCCTCTCTACTACCACCCTTATCGATCTCTCGGAGTCACCTAGTGCAG	8340 fluorescence intensity (a.u.)
ACTTCACATTTCCTTCTAACCTCTGCTTTGTCATTTCATACGGAGTCACCTAGTGCAG	9240 fluorescence intensity (a.u.)
AAGTGCTCGATCGGGAGCGGTGGTGGTGGTGGGGAGAGAGCGGAGTCACCTAGTGCAG	11300 fluorescence intensity (a.u.)
ATCACGCATCGCCTCCTACCTGACACACCACACTGCAAACCGGAGTCACCTAGTGCAG	9620 fluorescence intensity (a.u.)
TGGCCGGAGAGGGGAGATGGGGAGATGGGGAGAGGGGAGGCGGAGTCACCTAGTGCAG	9420 fluorescence intensity (a.u.)
CCCGGGTCATTGACCCAATCGACACACATTCATGGTAACTCGGAGTCACCTAGTGCAG	8590 fluorescence intensity (a.u.)
ACTTACCATGCTATTATATAGGCTGCATATACTCATAAAACGGAGTCACCTAGTGCAG	9600 fluorescence intensity (a.u.)
ACATATGTTGTTTAAGCTAGTTTTATTGTTATCATTGTAACGGAGTCACCTAGTGCAG	9620 fluorescence intensity (a.u.)
CCTCTGCTCTGCCGTCGCCCACTCCGCCCGCCGCCCACTCCGGAGTCACCTAGTGCAG	8710 fluorescence intensity (a.u.)
ACGCACGCACGCAAACCCTATCTCTATGAGCATCTTCGAACGGAGTCACCTAGTGCAG	8170 fluorescence intensity (a.u.)
AGGCACCGTCGTTGTCATCCATCATGCTCGACCACTCACGCGGAGTCACCTAGTGCAG	8390 fluorescence intensity (a.u.)
GTTTTCCGATTGATATCGACATGTCTCTGTTTTCATAGTTCGGAGTCACCTAGTGCAG	9300 fluorescence intensity (a.u.)
ACCTGTATTTATTTCGTTTTAAATACATGCTTCTAATAGTCGGAGTCACCTAGTGCAG	8780 fluorescence intensity (a.u.)

Sequence	binding signal
GTTTCAAACTTCCAGAGTTCCGGCCCATTTCCGACCCACTCGGAGTCACCTAGTGCAG	8620 fluorescence intensity (a.u.)
AAGACCGCAAAAAAATTTTCCTTCCATCGCTCGCCGCATTCGGAGTCACCTAGTGCAG	9180 fluorescence intensity (a.u.)
GCCCCACAGCCATTCCAAGCACATATTCCCTGCACCCTGCCGGAGTCACCTAGTGCAG	9260 fluorescence intensity (a.u.)
GGTTGGCTCGCATCGGGATTTTACGCGTGTTATGTGTGAACGGAGTCACCTAGTGCAG	8600 fluorescence intensity (a.u.)
CCCTGTTTTCATCACTGACGTAGCTAGCAACTAGCTTCCACGGAGTCACCTAGTGCAG	12300 fluorescence intensity (a.u.)
CACTAATTTTGCCTTTGTGCCTTTTACTATTGCGCATCACCGGAGTCACCTAGTGCAG	10200 fluorescence intensity (a.u.)
ACGTCAGCAGTCCACGCCTCCACCACGGGTCCAAGCGTCCCGGAGTCACCTAGTGCAG	8090 fluorescence intensity (a.u.)
CATTCCATTAAATTCTGCAGGCACACTTCACCTGATGTTTCGGAGTCACCTAGTGCAG	9790 fluorescence intensity (a.u.)
CTGTGCCGCTCGCTCGTTCGCTCTGTGACTGTACGTACATCGGAGTCACCTAGTGCAG	10200 fluorescence intensity (a.u.)
GGTGACACACTCCAACTCCAACCACTCCCCATACAACCTACGGAGTCACCTAGTGCAG	8500 fluorescence intensity (a.u.)
TAGGTTGTAAGGATGTATAGATTGAATTTAGTTTTGCATGCGGAGTCACCTAGTGCAG	8880 fluorescence intensity (a.u.)
TGGTCTGCTCGTCGTCTTCGACTCTTCATCGCCACTCGCCCGGAGTCACCTAGTGCAG	9610 fluorescence intensity (a.u.)
CCCTCAATCCAACGGCCCACGCTGCACTCCTCACCACTCACGGAGTCACCTAGTGCAG	9390 fluorescence intensity (a.u.)
CCACTGGATCCATTTCAATTTTACCTAGCCATCGCTGCGGCGGAGTCACCTAGTGCAG	8640 fluorescence intensity (a.u.)
TCCTCCGCCCTATTCGATCCCCTCCTCACCCCGCCGTTCTCGGAGTCACCTAGTGCAG	8800 fluorescence intensity (a.u.)
TAGTTTCTTGTTTTCAGTTTTTTTTTCTTGTCATTTTTTTCGGAGTCACCTAGTGCAG	19500 fluorescence intensity (a.u.)
ATTTCCCACTGCGTGATCCTGTTGCCTTTTTTAGAGCTCTCGGAGTCACCTAGTGCAG	9070 fluorescence intensity (a.u.)
TGAGAAAAAGTCAACGACGTCATCTATTAAAAAACGGAGGCGGAGTCACCTAGTGCAG	11900 fluorescence intensity (a.u.)
TCGCGATTTCTATGTAAACTGTGCAATTAGTTTTTTTATCCGGAGTCACCTAGTGCAG	8390 fluorescence intensity (a.u.)
CTTGATGTCTCTGGCACTCTTGGCTCTGGCTGGTAGCTATCGGAGTCACCTAGTGCAG	9640 fluorescence intensity (a.u.)
ATTTTGGACCAGAGATTCGGTATGCTGTTTCTTATGCGATCGGAGTCACCTAGTGCAG	9540 fluorescence intensity (a.u.)
